Test results published in patent publication US20140045211A1.
No constants are given. Whether binding was seen depends on the method and setting. Some entries that bind do so weakly or less than the wild type. Where a sequence is shown, tags or fusion partners need not be part of it.

Columns and labels:
[1] = molecular target: T1, Detergent-solubilized CCR1 (UniProt P32246); assay: chemokine affinity column; elution with 1 M NaCl; anti-CCR1 western blot
T1 sequence (looked up): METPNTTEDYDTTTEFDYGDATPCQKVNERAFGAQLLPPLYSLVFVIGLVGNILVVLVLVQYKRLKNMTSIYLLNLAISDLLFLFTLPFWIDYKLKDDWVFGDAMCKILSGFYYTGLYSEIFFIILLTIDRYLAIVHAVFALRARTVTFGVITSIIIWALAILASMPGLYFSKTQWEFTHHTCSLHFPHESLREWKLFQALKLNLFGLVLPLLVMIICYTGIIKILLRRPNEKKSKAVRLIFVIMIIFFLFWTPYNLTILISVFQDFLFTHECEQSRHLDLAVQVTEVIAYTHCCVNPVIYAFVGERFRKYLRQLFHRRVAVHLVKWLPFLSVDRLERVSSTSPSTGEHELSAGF

[2] = molecular target: T1, Detergent-solubilized CCR1; assay: chemokine affinity column; anti-CCR1 western blot of load, flow-through, wash and eluates

B1: Biotinylated CCL14 (CCL14 9-74 with C-terminal Avitag), immobilized on streptavidin agarose (ligand)
chain: GPYHPSECCFTYTTYKIPRQRIMDYYETNSQCSKPGIVFITKRGHSVCTNPSDKWVQDYIKDMKENKLGSGLNDIFEAQKIEWHE
modifications: biotin on the single specific lysine of the Avitag (BirA)
- binding [1]: binds
- binding [2]: binds
